Assay [1] has as its target T1, RGS7/TS-Gβ5 duplex (human) (UniProt P49802+O14775).
T1 sequence 1: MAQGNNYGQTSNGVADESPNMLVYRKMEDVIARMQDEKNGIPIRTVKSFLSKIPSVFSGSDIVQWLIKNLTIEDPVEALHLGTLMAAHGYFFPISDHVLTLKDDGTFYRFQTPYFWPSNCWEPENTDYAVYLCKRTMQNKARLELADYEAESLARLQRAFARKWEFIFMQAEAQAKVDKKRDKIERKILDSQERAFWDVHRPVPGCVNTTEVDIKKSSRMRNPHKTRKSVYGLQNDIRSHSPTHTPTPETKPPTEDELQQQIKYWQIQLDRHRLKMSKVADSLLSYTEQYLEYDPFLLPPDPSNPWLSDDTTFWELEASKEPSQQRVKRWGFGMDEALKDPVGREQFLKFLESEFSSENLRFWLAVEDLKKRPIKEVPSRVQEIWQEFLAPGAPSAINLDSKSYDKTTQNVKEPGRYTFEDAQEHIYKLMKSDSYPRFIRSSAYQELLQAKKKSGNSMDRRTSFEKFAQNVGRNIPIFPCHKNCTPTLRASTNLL
T1 sequence 2: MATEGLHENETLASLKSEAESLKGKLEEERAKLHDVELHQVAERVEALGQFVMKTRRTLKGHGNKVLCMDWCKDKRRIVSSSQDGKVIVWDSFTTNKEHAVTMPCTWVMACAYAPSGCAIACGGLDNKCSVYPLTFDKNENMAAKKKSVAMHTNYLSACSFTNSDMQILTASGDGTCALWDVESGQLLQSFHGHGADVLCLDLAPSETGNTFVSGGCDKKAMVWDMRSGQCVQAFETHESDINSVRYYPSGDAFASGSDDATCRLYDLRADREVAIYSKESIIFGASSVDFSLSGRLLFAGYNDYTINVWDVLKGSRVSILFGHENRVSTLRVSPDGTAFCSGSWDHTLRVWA
Description: pull-down; Expi293 cells co-transfected with RGS7, TS-Gβ5, R7BP-HIS and either WDR61 (sample A) or R7BPΔNC (sample B); lysate on MagStrep type3 XT beads, 4 °C, one hour; Western blot with anti-Gβ5 and anti-R7BP, bands quantified.

Sequences of proteins named here, by UniProt entry; tags and fusion partners are left off. A change or cut given only in a name is not applied to a line headed by its entry. A line that says so, or that is headed by a name, gives the form on record, which may keep a tag or linker.
UniProt Q6MZT1: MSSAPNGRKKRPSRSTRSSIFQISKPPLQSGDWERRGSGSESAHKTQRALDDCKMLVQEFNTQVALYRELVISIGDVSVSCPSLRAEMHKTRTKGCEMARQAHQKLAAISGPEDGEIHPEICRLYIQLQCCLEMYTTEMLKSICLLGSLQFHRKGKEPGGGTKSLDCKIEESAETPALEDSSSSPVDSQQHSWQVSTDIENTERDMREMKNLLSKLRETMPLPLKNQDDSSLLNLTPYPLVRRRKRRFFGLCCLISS
R7BP-HIS (Q6MZT1, form named): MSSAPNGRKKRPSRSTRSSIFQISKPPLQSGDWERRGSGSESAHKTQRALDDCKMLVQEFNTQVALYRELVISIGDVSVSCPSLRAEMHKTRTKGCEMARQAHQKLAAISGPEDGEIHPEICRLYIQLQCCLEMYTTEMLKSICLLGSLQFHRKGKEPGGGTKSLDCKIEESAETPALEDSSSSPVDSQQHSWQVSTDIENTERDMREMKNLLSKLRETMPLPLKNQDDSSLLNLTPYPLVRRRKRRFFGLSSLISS
UniProt O94810: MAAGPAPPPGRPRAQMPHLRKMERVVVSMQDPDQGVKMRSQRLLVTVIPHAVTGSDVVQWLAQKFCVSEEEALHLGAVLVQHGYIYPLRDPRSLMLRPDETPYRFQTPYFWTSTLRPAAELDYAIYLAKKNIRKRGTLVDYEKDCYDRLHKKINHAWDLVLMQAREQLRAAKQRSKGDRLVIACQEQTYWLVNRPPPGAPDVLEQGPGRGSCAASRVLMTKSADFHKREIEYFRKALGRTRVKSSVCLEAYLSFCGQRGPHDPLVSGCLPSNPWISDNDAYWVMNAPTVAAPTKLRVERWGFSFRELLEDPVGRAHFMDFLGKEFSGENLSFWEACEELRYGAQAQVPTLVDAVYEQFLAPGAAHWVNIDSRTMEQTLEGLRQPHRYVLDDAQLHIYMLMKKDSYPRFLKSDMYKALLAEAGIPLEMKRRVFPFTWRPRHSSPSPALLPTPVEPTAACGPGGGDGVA

In assay [2] the target is Gβ5 (GNB5, short form), N-terminally tagged (human) (UniProt O14775). The assay can be described thus: co-purification; R7-RGS protein expressed with N-terminally HIS- or TS-tagged Gβ5 in Expi293 cells; duplex purified on HisTrap HP or StrepTrap HP (washes with ATP/MgCl2 and 4.5 M NaCl), SEC if needed.

Results are given in words; binding and its absence hold for the method and conditions named. For some assays here: In cells and extracts the contact can be indirect. Some entries that bind do so weakly or less than the wild type.

On to R7BP-HIS (from UniProt Q6MZT1 1-257), for which the binding entry in assay [1] is reported as “binds”.
With RGS11 (from UniProt O94810 1-467), in assay [2], the binding result is “binds”.

Source of the values: PMC6744478.
